Our source for the EC50 values is patent US20250346616A1 (DIZAL (JIANGSU) PHARMACEUTICAL CO., LTD., priority 2022, published 2025).

Structures are written as SMILES.

The experiment has as its system HepG2 cells. In words: Cell-based phospholipidosis assay (LipidTOX Red). As to conditions: Homo sapiens, 24 h, LipidTOX Red dye. The procedure: HepG2 cells were dispensed into Collagen I-coated 96-well black wall/clear bottom assay plates at 5000 cells/90 μL/well.
The assay plates were incubated at 37° C. for 4 h to allow the cells to attach to wells, followed by addition of 30 μL of 1:250 LipidTOX Red dye (1:1000 final, then 120 nL Test compounds were added for the final concentration (50 uM start, 3-fold dilution, 8 doses, in duplicate). The 20 uM of Amiodarone and DMSO (0.1% final) were used for maximum and minimum control.
The assay plates were then incubated at 37° C. for 24 h, […] of 8% paraformaldehyde (4% final) fixative solution containing 8 μg/ml Hoechst 33342 (4 ug/mL final) in DPBS was added to each well. After incubation at room temperature for 25 min, the assay plates were washed with DPBS. The assay plates were sealed and stored at 4° C. before imaging.
The fluorescence intensities (595 nm excitation, 615 nm emission for LipidTOX Red; 352 nm excitation, 461 nm emission for Hoechst 33342) were measured using an High Content Screening System (Operetta, PerkinElmer) with a 10×Fluor objective. Images were acquired for 4 fields in each well and analyzed with the software. Average intensities were subjected to Prism and EC50 were calculated. The present disclosure provided compounds that are potent ROCK1 and ROCK2 inhibitors without liability of inducing phospholipidosis.

Take `CCCCc1oc2ccccc2c1C(=O)c1cc(I)c(OCCN(CC)CC)c(I)c1` [Amiodarone, reference compound]: the EC50 turned out to be 1.37 µM.
